Results are given in words; binding and its absence hold for the method and conditions named. For some assays here: In cells and extracts the contact can be indirect. Some results given as binding are weak or reduced against the parent protein; the word gives no strength. For some assays here: Sequences can lack the tags named with a protein.

Amino acid sequences for entries named in this document (tags omitted).
UniProt P20339, whole entry: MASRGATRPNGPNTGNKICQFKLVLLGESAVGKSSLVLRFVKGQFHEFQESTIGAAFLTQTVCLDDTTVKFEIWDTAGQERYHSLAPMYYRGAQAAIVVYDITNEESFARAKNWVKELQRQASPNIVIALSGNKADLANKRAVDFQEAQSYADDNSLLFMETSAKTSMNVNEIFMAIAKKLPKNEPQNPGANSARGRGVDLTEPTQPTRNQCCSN

Assay [1] has as its target T1, GST-Fy-2 (Ppp1r21) (human) (UniProt Q6ZMI0).
T1 sequence: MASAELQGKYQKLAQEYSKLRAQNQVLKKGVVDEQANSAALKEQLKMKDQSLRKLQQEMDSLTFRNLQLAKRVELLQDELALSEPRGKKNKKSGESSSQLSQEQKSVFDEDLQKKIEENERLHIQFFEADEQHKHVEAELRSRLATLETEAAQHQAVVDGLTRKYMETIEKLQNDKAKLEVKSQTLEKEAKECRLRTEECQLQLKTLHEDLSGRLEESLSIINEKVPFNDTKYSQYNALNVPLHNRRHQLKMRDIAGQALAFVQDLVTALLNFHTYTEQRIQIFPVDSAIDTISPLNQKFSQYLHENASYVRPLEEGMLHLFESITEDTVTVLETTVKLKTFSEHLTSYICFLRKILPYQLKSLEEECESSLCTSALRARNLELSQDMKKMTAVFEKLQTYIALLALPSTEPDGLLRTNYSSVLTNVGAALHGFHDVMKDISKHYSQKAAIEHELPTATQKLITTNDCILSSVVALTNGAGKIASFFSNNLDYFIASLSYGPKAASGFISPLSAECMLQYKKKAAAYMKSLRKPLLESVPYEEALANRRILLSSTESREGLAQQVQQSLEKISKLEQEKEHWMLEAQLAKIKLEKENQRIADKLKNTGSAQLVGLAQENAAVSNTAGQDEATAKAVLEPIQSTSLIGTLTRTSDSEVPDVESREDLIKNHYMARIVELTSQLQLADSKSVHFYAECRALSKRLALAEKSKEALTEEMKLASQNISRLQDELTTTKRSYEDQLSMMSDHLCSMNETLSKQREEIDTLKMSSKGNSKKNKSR
The assay is described as follows: pull-down.

The next assay has as its target GST-Rab5 (human) (UniProt P20339). The assay is described as follows: pull-down.
The target in assay [2] is T2, His6-Fy-1 (Tbck), subunit of the reconstituted FERRY complex (human) (UniProt Q8TEA7).
T2 sequence: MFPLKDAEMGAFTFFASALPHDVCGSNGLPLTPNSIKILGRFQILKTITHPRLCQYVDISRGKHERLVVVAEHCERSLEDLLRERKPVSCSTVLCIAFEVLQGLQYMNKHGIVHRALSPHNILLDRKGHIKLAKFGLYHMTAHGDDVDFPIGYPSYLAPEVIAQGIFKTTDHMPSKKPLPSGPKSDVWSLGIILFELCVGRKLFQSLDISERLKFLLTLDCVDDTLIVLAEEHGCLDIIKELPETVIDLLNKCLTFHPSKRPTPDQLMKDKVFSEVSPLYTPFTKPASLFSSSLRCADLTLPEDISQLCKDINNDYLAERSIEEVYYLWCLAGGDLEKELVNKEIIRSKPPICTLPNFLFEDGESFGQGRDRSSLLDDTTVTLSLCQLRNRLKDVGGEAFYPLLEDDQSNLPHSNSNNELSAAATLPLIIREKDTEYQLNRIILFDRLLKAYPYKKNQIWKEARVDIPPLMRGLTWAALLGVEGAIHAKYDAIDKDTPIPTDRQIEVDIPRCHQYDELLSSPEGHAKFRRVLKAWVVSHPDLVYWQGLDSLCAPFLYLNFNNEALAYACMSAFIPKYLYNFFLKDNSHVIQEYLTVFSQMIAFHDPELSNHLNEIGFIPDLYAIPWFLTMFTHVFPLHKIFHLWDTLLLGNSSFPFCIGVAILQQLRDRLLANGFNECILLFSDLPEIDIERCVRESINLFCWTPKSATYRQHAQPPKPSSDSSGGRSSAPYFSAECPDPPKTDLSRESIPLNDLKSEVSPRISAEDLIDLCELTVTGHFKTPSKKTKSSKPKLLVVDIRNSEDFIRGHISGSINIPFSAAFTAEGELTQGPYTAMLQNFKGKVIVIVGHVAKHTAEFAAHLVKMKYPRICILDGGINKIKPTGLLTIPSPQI
The assay is described as follows: mass photometry.

B1: His6-Fy-4 (Cryzl1) (natural protein, human, UniProt O95825 1-349, looked up)
chain: MKGLYFQQSSTDEEITFVFQEKEDLPVTEDNFVKLQVKACALSQINTKLLAEMKMKKDLFPVGREIAGIVLDVGSKVSFFQPDDEVVGILPLDSEDPGLCEVVRVHEHYLVHKPEKVTWTEAAGSIRDGVRAYTALHYLSHLSPGKSVLIMDGASAFGTIAIQLAHHRGAKVISTACSLEDKQCLERFRPPIARVIDVSNGKVHVAESCLEETGGLGVDIVLDAGVRLYSKDDEPAVKLQLLPHKHDIITLLGVGGHWVTTEENLQLDPPDSHCLFLKGATLAFLNDEVWNLSNVQQGKYLCILKDVMEKLSTGVFRPQLDEPIPLYEAKVSMEAVQKNQGRKKQVVQF
Take B1: the binding entry in assay [1] is “binds”.

B2: Fy-4 (Cryzl1), in vitro translated (protein, UniProt O95825 1-349)
chain: B1 chain
modifications: [35S]-methionine-labelled
Take B2: the binding entry in the assay with GST-Rab5 (human) is listed as “no binding”.

B3: Fy-5 (Gatd1), in vitro translated (protein, UniProt Q8NB37 1-220)
chain: MASERLPNRPACLLVASGAAEGVSAQSFLHCFTMASTAFNLQVATPGGKAMEFVDVTESNARWVQDFRLKAYASPAKLESIDGARYHALLIPSCPGALTDLASSGSLARILQHFHSESKPICAVGHGVAALCCATNEDRSWVFDSYSLTGPSVCELVRAPGFARLPLVVEDFVKDSGACFSASEPDAVHVVLDRHLVTGQNASSTVPAVQNLLFLCGSRK
modifications: [35S]-methionine-labelled
Take B3: the binding result in the assay with GST-Rab5 (human) is “no binding”.

B4: Fy-3 (C12orf4), untagged subunit of the recombinant FERRY and GST-FERRY complexes (natural protein, human, UniProt Q9NQ89 1-552, looked up)
chain: MKKNRERFCNREREFVYKFKVGSQCLELRVPLKFPVQENASHLHGRLMLLHSLPCFIEKDLKEALTQFIEEESLSDYDRDAEASLAAVKSGEVDLHQLASTWAKAYAETTLEHARPEEPSWDEDFADVYHDLIHSPASETLLNLEHNYFVSISELIGERDVELKKLRERQGIEMEKVMQELGKSLTDQDVNSLAAQHFESQQDLENKWSNELKQSTAIQKQEYQEWVIKLHQDLKNPNNSSLSEEIKVQPSQFRESVEAIGRIYEEQRKLEESFTIHLGAQLKTMHNLRLLRADMLDFCKHKRNHRSGVKLHRLQTALSLYSTSLCGLVLLVDNRINSYSGIKRDFATVCQECTDFHFPRIEEQLEVVQQVVLYARTQRRSKLKESLDSGNQNGGNDDKTKNAERNYLNVLPGEFYITRHSNLSEIHVAFHLCVDDHVKSGNITARDPAIMGLRNILKVCCTHDITTISIPLLLVHDMSEEMTIPWCLRRAELVFKCVKGFMMEMASWDGGISRTVQFLVPQSISEEMFYQLSNMLPQIFRVSSTLTLTSKH
On to B4, for which the binding result in assay [1] and in assay [2] was “binds” in each case.

B5: Fy-3 (C12orf4), in vitro translated (protein, UniProt Q9NQ89 1-552)
chain: B4 chain
modifications: [35S]-methionine-labelled
For the molecule B5, the binding entry in the assay with GST-Rab5 (human) is on record as “no binding”.

B6: Fy-2 (Ppp1r21), untagged subunit of the reconstituted FERRY complex (natural protein, human, UniProt Q6ZMI0 1-780, looked up)
chain: T1 sequence
On to B6, for which the binding entry in assay [2] was “binds”.

B7: Fy-2 (Ppp1r21), in vitro translated (protein, UniProt Q6ZMI0 1-780)
chain: T1 sequence
modifications: [35S]-methionine-labelled
As to B7, the binding entry in the assay with GST-Rab5 (human) is “binds”.

For the origin of these results see publication doi:10.1101/2021.06.20.449167 (bioRxiv, 2021).
